Source: paper PMC12843137, “Fine-Tuning Side Chain Substitutions: Impacts on the Lipophilicity–Solubility–Permeability Interplay in Macrocyclic Peptides” (Marine Drugs, 2025)

test system: Caco-2 cell monolayer; experiment: Caco-2 monolayer integrity, Lucifer Yellow leakage; type: in vitro ADME; settings: Lucifer Yellow leakage after transport, compound 5 µM

Row | Structure (SMILES) | LY Leakage A-B | LY Leakage B-A
1 | CCCCCCCCCCCCCC1OC(=O)CN(C)C(=O)C=CC(CN2CCN(C)CC2)NC(=O)CNC(=O)C(C)(O)C(=O)C1C (stereo not drawn) [BE-NMP] | 0.32% | 0.20%
2 | CCCCOc1ccc(-c2ccc(-c3ccc(Cn4cc(CCCCC[C@H]5OC(=O)CN(C)C(=O)/C=C/[C@@H](CN6CCN(C)CC6)NC(=O)CNC(=O)[C@@](C)(O)C(=O)[C@H]5C)nn4)cc3)cc2)cc1 [Compound 29] | 0.21% | 0.17%
3 | CC1C(=O)C(C)(O)C(=O)NCC(=O)NC(CN2CCN(C)CC2)C=CC(=O)N(C)CC(=O)OC1CCCCc1cn(CCCCCCCCNC(=N)N)nn1 (stereo not drawn) [Compound 31] | 0.20% | 0.18%
4 | C[C@@H]1C(=O)[C@](C)(O)C(=O)NCC(=O)N[C@H](CN2CCN(C)CC2)/C=C/C(=O)N(C)CC(=O)O[C@H]1CCCCCc1cn(CCCCCCCCCC(=O)O)nn1 [Compound 39] | 0.56% | 0.17%
5 | C[C@@H]1C(=O)[C@](C)(O)C(=O)NCC(=O)N[C@H](CN2CCN(C)CC2)/C=C/C(=O)N(C)CC(=O)O[C@H]1CCCCCc1cn(CCCCCCCNc2cccc3c2CN(C2CCC(=O)NC2=O)C3=O)nn1 (stereo partly drawn) [Compound 40] | 0.22% | 0.18%
6 | C[C@H]1O[C@@H](O[C@H]2[C@@H](O)C[C@H](O[C@H]3[C@@H](O)C[C@H](O[C@H]4CC[C@@]5(C)[C@H](CC[C@@H]6[C@@H]5C[C@@H](O)[C@]5(C)[C@@H](C7=CC(=O)OC7)CC[C@]65O)C4)O[C@@H]3C)O[C@@H]2C)C[C@H](O)[C@@H]1O [Digoxin, reference compound] | 0.21% | 0.22%
